# In the supplement of paper PMC8728848:
# The list shows a part of the results.
# B1: cFel (Cyprinus carpio), P68512 (protein)
# chain: LDCTVIDGNLKQIDAGSGSVVGVNNLNETFVLIDNVFTKISGSLKHFSVGPAGQLGVNTANNIFKYQSGGFVQLAGLLKQVDAGGDQIIAGVNMYDDIYCLNMDANNKWPSSNTPWVQINGKLKYYSCGPYSCWGVNSNDQIFIMKDVSSNVCSGSGSFINIPGLLSMIEVATDGSVFGVNSQGNLYQRTGVTRSKPDGTDWISMVACPNGHKHVSFDLGVLWLVCVDGSIRKCILTD
# Key:
# Assay in all cases: glycan array binding signal (z-score within array); higher = stronger binding
# Details in all cases: glycan notation: IUPAC condensed, linker removed
# [1] = biological target: Gal(a1-3)Gal(b1-4)GlcNAc
# Outline: (§1)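 Glycan array data came from 3228 arrays in the Consortium for Functional Glycomics database, and only arrays with an available protein sequence were kept. Glycan names were put into IUPAC-condensed notation, and columns mapping to the same glycan were averaged. The binding signal is a within-array Z-score, averaged across arrays of one protein sequence run at different concentrations or buffers and across linkers. A negative Z-score can be read as non-binding.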
# [2] = biological target: Gal(a1-3)Gal(b1-4)GlcNAc(b1-2)Man
# Outline: as §1
# [3] = biological target: Gal(a1-3)Gal(b1-4)GlcNAc(b1-2)Man(a1-3)[Gal(a1-3)Gal(b1-4)GlcNAc(b1-2)Man(a1-6)]Man(b1-4)GlcNAc(b1-4)GlcNAc
# Outline: as §1
# [4] = biological target: Gal(a1-3)Gal(b1-4)GlcNAc(b1-3)GalNAc
# Outline: as §1
# [5] = biological target: Gal(a1-3)Gal(b1-4)GlcNAc(b1-6)GalNAc
# Outline: as §1
# [6] = biological target: Gal(a1-3)Gal(b1-4)[Fuc(a1-3)]GlcNAc
# Outline: as §1
# [7] = biological target: Gal(a1-3)Gal(b1-4)[Fuc(a1-3)]GlcNAc(b1-2)Man(a1-3)[Gal(a1-3)Gal(b1-4)[Fuc(a1-3)]GlcNAc(b1-2)Man(a1-6)]Man(b1-4)GlcNAc(b1-4)GlcNAc
# Outline: as §1
# [8] = biological target: Gal(a1-3)GalNAc
# Outline: as §1
# [9] = biological target: Gal(a1-3)[Gal(a1-4)]Gal(b1-4)GlcNAc
# Outline: as §1
# [10] = biological target: Gal(a1-4)Gal(b1-3)GlcNAc(b1-2)Man(a1-3)[Gal(a1-4)Gal(b1-3)GlcNAc(b1-2)Man(a1-6)]Man(b1-4)GlcNAc(b1-4)GlcNAc
# Outline: as §1
# [11] = biological target: Gal(a1-4)Gal(b1-4)Glc
# Outline: as §1
# [12] = biological target: Gal(a1-4)Gal(b1-4)GlcNAc
# Outline: as §1
# [13] = biological target: Gal(a1-4)Gal(b1-4)GlcNAc(b1-2)Man(a1-3)[Gal(a1-4)Gal(b1-4)GlcNAc(b1-2)Man(a1-6)]Man(b1-4)GlcNAc(b1-4)GlcNAc
# Outline: as §1
# [14] = biological target: Gal(a1-4)Gal(b1-4)GlcNAc(b1-3)Gal(b1-4)Glc
# Outline: as §1
# [15] = biological target: Gal(a1-4)GlcNAc
# Outline: as §1
# [16] = biological target: Gal(a1-6)Glc
# Outline: as §1
# [17] = biological target: Gal(b1-2)Gal
# Outline: as §1
# [18] = biological target: Gal(b1-3)Gal
# Outline: as §1
# [19] = biological target: Gal(b1-3)Gal(b1-4)GlcNAc
# Outline: as §1
# [20] = biological target: Gal(b1-3)GalNAc
# Outline: as §1
# [21] = biological target: Gal(b1-3)GalNAc(a1-3)[Fuc(a1-2)]Gal(b1-4)Glc
# Outline: as §1
# [22] = biological target: Gal(b1-3)GalNAc(a1-3)[Fuc(a1-2)]Gal(b1-4)GlcNAc
# Outline: as §1
# [23] = biological target: Gal(b1-3)GalNAc(b1-3)Gal
# Outline: as §1
# [24] = biological target: Gal(b1-3)GalNAc(b1-3)Gal(a1-4)Gal(b1-4)Glc
# Outline: as §1
# [25] = biological target: Gal(b1-3)GalNAc(b1-4)Gal(b1-4)Glc
# Outline: as §1
# [26] = biological target: Gal(b1-3)GalNAc(b1-4)[Neu5Ac(a2-3)]Gal(b1-4)Glc
# Outline: as §1
# [27] = biological target: Gal(b1-3)GlcNAc
# Outline: as §1
# [28] = biological target: Gal(b1-3)GlcNAc(a1-3)Gal(b1-4)GlcNAc
# Outline: as §1
# [29] = biological target: Gal(b1-3)GlcNAc(a1-6)Gal(b1-4)GlcNAc
# Outline: as §1
# [30] = biological target: Gal(b1-3)GlcNAc(b1-2)Man
# Outline: as §1
# [31] = biological target: Gal(b1-3)GlcNAc(b1-2)Man(a1-3)[Gal(b1-3)GlcNAc(b1-2)Man(a1-6)]Man(b1-4)GlcNAc(b1-4)GlcNAc
# Outline: as §1
# [32] = biological target: Gal(b1-3)GlcNAc(b1-2)Man(a1-3)[Gal(b1-3)GlcNAc(b1-2)Man(a1-6)]Man(b1-4)GlcNAc(b1-4)[Fuc(a1-6)]GlcNAc
# Outline: as §1
# [33] = biological target: Gal(b1-3)GlcNAc(b1-2)Man(a1-3)[GlcNAc(b1-4)][Gal(b1-3)GlcNAc(b1-2)Man(a1-6)]Man(b1-4)GlcNAc(b1-4)GlcNAc
# Outline: as §1
# [34] = biological target: Gal(b1-3)GlcNAc(b1-2)[Gal(b1-3)GlcNAc(b1-6)]Man(a1-6)[Gal(b1-3)GlcNAc(b1-2)Man(a1-3)]Man(b1-4)GlcNAc(b1-4)GlcNAc
# Outline: as §1
# [35] = biological target: Gal(b1-3)GlcNAc(b1-3)Gal(b1-3)GlcNAc
# Outline: as §1
# [36] = biological target: Gal(b1-3)GlcNAc(b1-3)Gal(b1-4)Glc
# Outline: as §1
# [37] = biological target: Gal(b1-3)GlcNAc(b1-3)Gal(b1-4)GlcNAc
# Outline: as §1
# [38] = biological target: Gal(b1-3)GlcNAc(b1-3)Gal(b1-4)GlcNAc(b1-2)Man(a1-3)[Gal(b1-3)GlcNAc(b1-3)Gal(b1-4)GlcNAc(b1-2)Man(a1-6)]Man(b1-4)GlcNAc(b1-4)GlcNAc
# Outline: as §1
# [39] = biological target: Gal(b1-3)GlcNAc(b1-3)Gal(b1-4)GlcNAc(b1-2)[Gal(b1-3)GlcNAc(b1-3)Gal(b1-4)GlcNAc(b1-6)]Man(a1-6)[Gal(b1-3)GlcNAc(b1-3)Gal(b1-4)GlcNAc(b1-2)Man(a1-3)]Man(b1-4)GlcNAc(b1-4)[Fuc(a1-6)]GlcNAc
# Outline: as §1
# [40] = biological target: Gal(b1-3)GlcNAc(b1-3)Gal(b1-4)GlcNAc(b1-3)Gal(b1-4)GlcNAc(b1-2)[Gal(b1-3)GlcNAc(b1-3)Gal(b1-4)GlcNAc(b1-3)Gal(b1-4)GlcNAc(b1-6)]Man(a1-6)[Gal(b1-3)GlcNAc(b1-3)Gal(b1-4)GlcNAc(b1-3)Gal(b1-4)GlcNAc(b1-2)Man(a1-3)]Man(b1-4)GlcNAc(b1-4)[Fuc(a1-6)]GlcNAc
# Outline: as §1
# [41] = biological target: Gal(b1-3)GlcNAc(b1-3)Gal(b1-4)GlcNAc(b1-6)[Gal(b1-3)GlcNAc(b1-3)]Gal(b1-4)Glc
# Outline: as §1
# [42] = biological target: Gal(b1-3)GlcNAc(b1-3)Gal(b1-4)[Fuc(a1-3)]GlcNAc
# Outline: as §1
# [43] = biological target: Gal(b1-3)GlcNAc(b1-3)Gal(b1-4)[Fuc(a1-3)]GlcNAc(b1-6)[Gal(b1-3)GlcNAc(b1-3)]Gal(b1-4)Glc
# Outline: as §1
# [44] = biological target: Gal(b1-3)GlcNAc(b1-3)GalNAc
# Outline: as §1
# [45] = biological target: Gal(b1-3)GlcNAc(b1-6)Gal(b1-4)GlcNAc
# Outline: as §1
binder,measurement,setting,value
B1,glycan array binding signal (z-score),[1],0.862
same,glycan array binding signal (z-score),[2],-0.902
same,glycan array binding signal (z-score),[3],-0.239
same,glycan array binding signal (z-score),[4],-1.1
same,glycan array binding signal (z-score),[5],-0.149
same,glycan array binding signal (z-score),[6],0.942
same,glycan array binding signal (z-score),[7],0.223
same,glycan array binding signal (z-score),[8],-0.513
same,glycan array binding signal (z-score),[9],-0.299
same,glycan array binding signal (z-score),[10],-0.502
same,glycan array binding signal (z-score),[11],-1.02
same,glycan array binding signal (z-score),[12],-0.32
same,glycan array binding signal (z-score),[13],-0.901
same,glycan array binding signal (z-score),[14],1.15
same,glycan array binding signal (z-score),[15],-0.218
same,glycan array binding signal (z-score),[16],-0.912
same,glycan array binding signal (z-score),[17],0.505
same,glycan array binding signal (z-score),[18],-0.479
same,glycan array binding signal (z-score),[19],-1.05
same,glycan array binding signal (z-score),[20],-0.974
same,glycan array binding signal (z-score),[21],-0.438
same,glycan array binding signal (z-score),[22],-0.789
same,glycan array binding signal (z-score),[23],1.31
same,glycan array binding signal (z-score),[24],-0.508
same,glycan array binding signal (z-score),[25],-0.944
same,glycan array binding signal (z-score),[26],-1.19
same,glycan array binding signal (z-score),[27],-0.131
same,glycan array binding signal (z-score),[28],1.29
same,glycan array binding signal (z-score),[29],0.772
same,glycan array binding signal (z-score),[30],-1.43
same,glycan array binding signal (z-score),[31],-1.01
same,glycan array binding signal (z-score),[32],-1.57
same,glycan array binding signal (z-score),[33],3.37
same,glycan array binding signal (z-score),[34],-0.869
same,glycan array binding signal (z-score),[35],0.162
same,glycan array binding signal (z-score),[36],-0.176
same,glycan array binding signal (z-score),[37],-0.661
same,glycan array binding signal (z-score),[38],-0.229
same,glycan array binding signal (z-score),[39],-0.039
same,glycan array binding signal (z-score),[40],0.075
same,glycan array binding signal (z-score),[41],0.814
same,glycan array binding signal (z-score),[42],0.016
same,glycan array binding signal (z-score),[43],0.284
same,glycan array binding signal (z-score),[44],1.19
same,glycan array binding signal (z-score),[45],-0.557
